Measurements as given in article doi:10.1101/2020.03.21.001826.
No constants are given. Whether binding was seen depends on the method and setting. For some assays here: In cells and extracts the contact can be indirect. Some results given as binding are weak or reduced against the parent protein; the word gives no strength. For some assays here: Where a sequence is shown, tags or fusion partners need not be part of it.

Legend:
[1] = target: T1, SnRK2.6 fused to the GAL4 DNA binding domain (pGBKT7) (Arabidopsis) (UniProt Q940H6); test: two-hybrid
T1 sequence: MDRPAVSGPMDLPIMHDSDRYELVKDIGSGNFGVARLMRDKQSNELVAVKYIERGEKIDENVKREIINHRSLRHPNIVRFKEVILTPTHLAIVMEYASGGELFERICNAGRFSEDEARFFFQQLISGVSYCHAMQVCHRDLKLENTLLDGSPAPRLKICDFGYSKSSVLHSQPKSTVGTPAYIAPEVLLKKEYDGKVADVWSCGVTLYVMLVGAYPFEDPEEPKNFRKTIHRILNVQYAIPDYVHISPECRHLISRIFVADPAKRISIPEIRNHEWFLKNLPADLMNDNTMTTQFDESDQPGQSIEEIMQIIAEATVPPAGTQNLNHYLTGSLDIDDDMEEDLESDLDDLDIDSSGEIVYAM

[2] = target: SnRK1.1 fused to the GAL4 DNA binding domain (pGBKT7) (Arabidopsis) (UniProt Q38997); test: two-hybrid
[3] = target: T2, SnRK2.8 fused to the GAL4 DNA binding domain (pGBKT7) (Arabidopsis) (UniProt Q9M9E9); test: two-hybrid
T2 sequence: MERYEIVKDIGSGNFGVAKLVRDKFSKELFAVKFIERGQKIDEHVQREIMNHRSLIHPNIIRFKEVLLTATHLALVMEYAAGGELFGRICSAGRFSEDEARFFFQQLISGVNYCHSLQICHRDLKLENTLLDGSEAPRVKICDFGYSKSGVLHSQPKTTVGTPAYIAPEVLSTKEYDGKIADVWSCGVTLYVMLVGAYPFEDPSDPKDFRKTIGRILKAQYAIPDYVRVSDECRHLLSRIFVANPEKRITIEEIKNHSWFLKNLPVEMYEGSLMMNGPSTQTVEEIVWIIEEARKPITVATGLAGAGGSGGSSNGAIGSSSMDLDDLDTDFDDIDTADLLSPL

[4] = target: AvrPtoB-GFP (dexamethasone-inducible, pTA7001) (Pseudomonas syringae) (UniProt Q8RSY1); test: co-IP

Substance | binding [1] | binding [2] | binding [3] | binding [4]
AvrPtoB fused to the GAL4 activation domain (pGADT7-AvrPtoB) (from UniProt Q8RSY1 1-553) | binds | binds | binds | 
SnRK1.1-KD-HA (kinase dead, K71A) (from UniProt Q38997-1 1-535) (enzyme) |  |  |  | binds weakly
SnRK2.8-KD-HA (kinase dead, K33A) (from UniProt Q9M9E9 1-343) (enzyme) |  |  |  | binds
